Results deposited as PubChem BioAssay AID1259275 (Sanger Institute, 2017).
This is a random part of 794 deposited reagents. Over the whole deposit, 13 (1.6%) are marked active. 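Calls mark knock-downs lethal by themselves, not drug synergy; drugs went in a day after transfection, with DMSO as vehicle.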 Viability is capped at 1. Not all columns of the deposit are shown. The record does not give: the amount of reagent, the time to read-out.

- Assay: 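Knock-downs that cut viability on their own or combined with BYL719, cetuximab or trametinib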 (primary screen)
- Cells: COLO320HSR human colorectal cancer cells
- Knock-down reagent: siRNA pool against human genes
- Treatment: anchor drug added one day after transfection: BYL719 at 1 µM, cetuximab at 5 µg/ml or trametinib at 10 nM; DMSO as vehicle arm
- Measurement: 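Replicate-mean viability versus non-targeting pool control, robust z-score without drug, and per-drug synergy scores for BYL719 at 1 µM, cetuximab at 5 µg/ml and trametinib at 10 nM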
- Scale: robust z-score, siRNA alone: higher = more viable cells; strongly negative means essential; viability, knock-down alone (DMSO): higher = more viable cells
- Rule for the call: 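Essential means the knock-down by itself gives a robust z-score lower than -3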
- Meaning of the calls: active = essential (siRNA alone); inactive = no change (siRNA alone)

With CDKN2D (cyclin dependent kinase inhibitor 2D), how do the results read?
robust z-score, siRNA alone: -0.445; viability, knock-down alone (DMSO) (fraction of control): 0.894; outcome: inactive

For MAST1 (microtubule associated serine/threonine kinase 1), what does the deposit list?
robust z-score, siRNA alone: 0.726; viability, knock-down alone (DMSO) (fraction of control): 1; outcome: inactive

For CDC42BPG (CDC42 binding protein kinase gamma), how do the results read?
robust z-score, siRNA alone: 0.726; viability, knock-down alone (DMSO) (fraction of control): 1; outcome: inactive

What did the screen give for PIK3R3 (phosphoinositide-3-kinase regulatory subunit 3)?
robust z-score, siRNA alone: 0.402; viability, knock-down alone (DMSO) (fraction of control): 0.971; outcome: inactive

For ITPKB (inositol-trisphosphate 3-kinase B), what does the deposit list?
robust z-score, siRNA alone: 0.411; viability, knock-down alone (DMSO) (fraction of control): 0.971; outcome: inactive

What is on record for PIM1 (Pim-1 proto-oncogene, serine/threonine kinase)?
robust z-score, siRNA alone: -1.98; viability, knock-down alone (DMSO) (fraction of control): 0.756; outcome: inactive

How did the screen score NUAK1 (NUAK family kinase 1)?
robust z-score, siRNA alone: -0.312; viability, knock-down alone (DMSO) (fraction of control): 0.906; outcome: inactive

Which result is listed for MYO3A (myosin IIIA)?
robust z-score, siRNA alone: -1.19; viability, knock-down alone (DMSO) (fraction of control): 0.827; outcome: inactive

With MAP3K14 (mitogen-activated protein kinase kinase kinase 14), what was measured?
robust z-score, siRNA alone: -1.66; viability, knock-down alone (DMSO) (fraction of control): 0.785; outcome: inactive

How did the screen score DGKB (diacylglycerol kinase beta)?
robust z-score, siRNA alone: -2.46; viability, knock-down alone (DMSO) (fraction of control): 0.712; outcome: inactive

What did the screen give for INSRR (insulin receptor related receptor)?
robust z-score, siRNA alone: -0.0427; viability, knock-down alone (DMSO) (fraction of control): 0.931; outcome: inactive

For TCF12 (transcription factor 12), what does the deposit list?
robust z-score, siRNA alone: 0.726; viability, knock-down alone (DMSO) (fraction of control): 1; outcome: inactive

Which result is listed for CREBBP (CREB binding lysine acetyltransferase)?
robust z-score, siRNA alone: -1.66; viability, knock-down alone (DMSO) (fraction of control): 0.785; outcome: inactive

With DTYMK (deoxythymidylate kinase), what does the deposit list?
robust z-score, siRNA alone: 0.554; viability, knock-down alone (DMSO) (fraction of control): 0.984; outcome: inactive

For PRKD3 (protein kinase D3), what does the deposit list?
robust z-score, siRNA alone: -0.592; viability, knock-down alone (DMSO) (fraction of control): 0.881; outcome: inactive

What did the screen give for TAOK3 (TAO kinase 3)?
robust z-score, siRNA alone: -1.53; viability, knock-down alone (DMSO) (fraction of control): 0.796; outcome: inactive

For TWF1 (twinfilin actin binding protein 1), what was measured?
robust z-score, siRNA alone: 0.726; viability, knock-down alone (DMSO) (fraction of control): 1; outcome: inactive

What did the screen give for PI4KA (phosphatidylinositol 4-kinase alpha)?
robust z-score, siRNA alone: 0.726; viability, knock-down alone (DMSO) (fraction of control): 1; outcome: inactive

How did the screen score MARK1 (microtubule affinity regulating kinase 1)?
robust z-score, siRNA alone: 0.726; viability, knock-down alone (DMSO) (fraction of control): 1; outcome: inactive

For DDR2 (discoidin domain receptor tyrosine kinase 2), what does the deposit list?
robust z-score, siRNA alone: 0.719; viability, knock-down alone (DMSO) (fraction of control): 0.999; outcome: inactive

What is on record for CHKB (choline kinase beta)?
robust z-score, siRNA alone: 0.726; viability, knock-down alone (DMSO) (fraction of control): 1; outcome: inactive

Which result is listed for FGFRL1 (fibroblast growth factor receptor like 1)?
robust z-score, siRNA alone: 0.315; viability, knock-down alone (DMSO) (fraction of control): 0.963; outcome: inactive

Which result is listed for SKAP1 (src kinase associated phosphoprotein 1)?
robust z-score, siRNA alone: 0.726; viability, knock-down alone (DMSO) (fraction of control): 1; outcome: inactive

Which result is listed for SRGAP3 (SLIT-ROBO Rho GTPase activating protein 3)?
robust z-score, siRNA alone: 0.726; viability, knock-down alone (DMSO) (fraction of control): 1; outcome: inactive

For STK32B (serine/threonine kinase 32B), what was measured?
robust z-score, siRNA alone: -0.77; viability, knock-down alone (DMSO) (fraction of control): 0.865; outcome: inactive

For CLK2 (CDC like kinase 2), what was measured?
robust z-score, siRNA alone: -0.475; viability, knock-down alone (DMSO) (fraction of control): 0.892; outcome: inactive

For MARK4 (microtubule affinity regulating kinase 4), how do the results read?
robust z-score, siRNA alone: -0.345; viability, knock-down alone (DMSO) (fraction of control): 0.903; outcome: inactive

With PLK1 (polo like kinase 1), how do the results read?
robust z-score, siRNA alone: -6.29; viability, knock-down alone (DMSO) (fraction of control): 0.367; outcome: active

What is on record for RNASEL (ribonuclease L)?
robust z-score, siRNA alone: 0.726; viability, knock-down alone (DMSO) (fraction of control): 1; outcome: inactive

With SCYL3 (SCY1 like pseudokinase 3), what was measured?
robust z-score, siRNA alone: 0.715; viability, knock-down alone (DMSO) (fraction of control): 0.999; outcome: inactive

Which result is listed for EPHA6 (EPH receptor A6)?
robust z-score, siRNA alone: -4.92; viability, knock-down alone (DMSO) (fraction of control): 0.491; outcome: active

How did the screen score CSNK2A2 (casein kinase 2 alpha 2)?
robust z-score, siRNA alone: -0.0684; viability, knock-down alone (DMSO) (fraction of control): 0.928; outcome: inactive

How did the screen score FGFR3 (fibroblast growth factor receptor 3)?
robust z-score, siRNA alone: -0.482; viability, knock-down alone (DMSO) (fraction of control): 0.891; outcome: inactive

What is on record for IRAK4 (interleukin 1 receptor associated kinase 4)?
robust z-score, siRNA alone: 0.726; viability, knock-down alone (DMSO) (fraction of control): 1; outcome: inactive

How did the screen score IP6K1 (inositol hexakisphosphate kinase 1)?
robust z-score, siRNA alone: 0.528; viability, knock-down alone (DMSO) (fraction of control): 0.982; outcome: inactive

How did the screen score BMAL1 (basic helix-loop-helix ARNT like 1)?
robust z-score, siRNA alone: -0.241; viability, knock-down alone (DMSO) (fraction of control): 0.913; outcome: inactive
